The text below walks through data of paper PMC10832218.

The target of experiment [1] is T1, BORIS (Brother of Regulator of Imprinted Sites) (human) (UniProt Q8NI51).
T1 sequence: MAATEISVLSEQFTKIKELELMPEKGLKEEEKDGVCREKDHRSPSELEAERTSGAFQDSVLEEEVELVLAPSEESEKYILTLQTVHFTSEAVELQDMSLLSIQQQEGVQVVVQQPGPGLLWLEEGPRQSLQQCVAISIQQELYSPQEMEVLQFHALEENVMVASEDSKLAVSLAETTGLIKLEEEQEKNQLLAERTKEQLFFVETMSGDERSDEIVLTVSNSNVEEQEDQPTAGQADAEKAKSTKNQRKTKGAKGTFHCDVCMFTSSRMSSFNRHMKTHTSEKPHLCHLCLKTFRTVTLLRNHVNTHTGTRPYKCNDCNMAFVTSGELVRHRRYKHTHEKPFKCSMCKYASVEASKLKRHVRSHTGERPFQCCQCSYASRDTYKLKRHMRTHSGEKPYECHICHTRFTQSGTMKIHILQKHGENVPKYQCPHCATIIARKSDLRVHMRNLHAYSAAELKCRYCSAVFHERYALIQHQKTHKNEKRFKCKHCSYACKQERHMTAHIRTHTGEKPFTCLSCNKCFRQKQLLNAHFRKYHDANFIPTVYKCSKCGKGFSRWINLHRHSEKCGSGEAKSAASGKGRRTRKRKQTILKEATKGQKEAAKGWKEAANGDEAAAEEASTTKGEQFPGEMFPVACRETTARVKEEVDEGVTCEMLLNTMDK
Kind of experiment: co-IP; Nuclear Complex Co-IP Kit (Active Motif); 200 ug nuclear extract of NIH3T3 + BORIS (clone#2) cells with 3 ug antibody overnight at 4 C, Protein G beads, low salt and detergent IP buffers; extracts with or without benzonase (125 U/mL, on ice, 90 min); Western blot. (Immunoblotting shows a protein as a band on a membrane.)

The target in experiment [2] is SRCAP (SNF-2-related CREBBP activator protein) (mouse (endogenous in NIH3T3)). The description is as above.

Results are given in words; binding and its absence hold for the method and conditions named. In cells and extracts the contact can be indirect. Binding can be weak; no strength is given.

“SRCAP (SNF-2-related CREBBP activator protein) (mouse (endogenous in NIH3T3))”: in experiment [1], the binding entry was “binds”.

B1: CTCF (CCCTC-Binding Factor) (protein, UniProt Q61164 1-736)
chain: MEGEAVEAIVEESETFIKGKERKTYQRRREGGQEEDACHLPQNQTDGGEVVQDVNSSVQMVMMEQLDPTLLQMKTEVMEGTVAPEAEAAVDDTQIITLQVVNMEEQPINIGELQLVQVPVPVTVPVATTSVEELQGAYENEVSKEGLAESEPMICHTLPLPEGFQVVKVGANGEVETLEQGELPPQEDSSWQKDPDYQPPAKKTKKTKKSKLRYTEEGKDVDVSVYDFEEEQQEGLLSEVNAEKVVGNMKPPKPTKIKKKGVKKTFQCELCSYTCPRRSNLDRHMKSHTDERPHKCHLCGRAFRTVTLLRNHLNTHTGTRPHKCPDCDMAFVTSGELVRHRRYKHTHEKPFKCSMCDYASVEVSKLKRHIRSHTGERPFQCSLCSYASRDTYKLKRHMRTHSGEKPYECYICHARFTQSGTMKMHILQKHTENVAKFHCPHCDTVIARKSDLGVHLRKQHSYIEQGKKCRYCDAVFHERYALIQHQKSHKNEKRFKCDQCDYACRQERHMIMHKRTHTGEKPYACSHCDKTFRQKQLLDMHFKRYHDPNFVPAAFVCSKCGKTFTRRNTMARHADNCAGPDGVEGENGGETKKSKRGRKRKMRSKKEDSSDSEENAEPDLDDNEEEEEPAVEIEPEPEPQPQPPPPPQPVAPAPPPAKKRRGRPPGRTNQPKQNQPTAIIQVEDQNTGAIENIIVEVKKEPDAEPAEGEEEEAQAATTDAPNGDLTPEMILSMMDR
Turning to B1, the binding entry in experiment [2] is listed as “binds”.

B2: BORIS (Brother of Regulator of Imprinted Sites) (protein, UniProt Q8NI51 1-663)
chain: MAATEISVLSEQFTKIKELELMPEKGLKEEEKDGVCREKDHRSPSELEAERTSGAFQDSVLEEEVELVLAPSEESEKYILTLQTVHFTSEAVELQDMSLLSIQQQEGVQVVVQQPGPGLLWLEEGPRQSLQQCVAISIQQELYSPQEMEVLQFHALEENVMVASEDSKLAVSLAETTGLIKLEEEQEKNQLLAERTKEQLFFVETMSGDERSDEIVLTVSNSNVEEQEDQPTAGQADAEKAKSTKNQRKTKGAKGTFHCDVCMFTSSRMSSFNRHMKTHTSEKPHLCHLCLKTFRTVTLLRNHVNTHTGTRPYKCNDCNMAFVTSGELVRHRRYKHTHEKPFKCSMCKYASVEASKLKRHVRSHTGERPFQCCQCSYASRDTYKLKRHMRTHSGEKPYECHICHTRFTQSGTMKIHILQKHGENVPKYQCPHCATIIARKSDLRVHMRNLHAYSAAELKCRYCSAVFHERYALIQHQKTHKNEKRFKCKHCSYACKQERHMTAHIRTHTGEKPFTCLSCNKCFRQKQLLNAHFRKYHDANFIPTVYKCSKCGKGFSRWINLHRHSEKCGSGEAKSAASGKGRRTRKRKQTILKEATKGQKEAAKGWKEAANGDEAAAEEASTTKGEQFPGEMFPVACRETTARVKEEVDEGVTCEMLLNTMDK
Consider B2, for which the binding result in experiment [2] was “binds”.
